Measurements published in paper PMC8100127.
The exact form of at least one protein or probe is not confirmed. For some of these results: Tags and fusion partners may be left off the protein sequences shown.

Chains of the proteins cited; added tags and fusions are not shown. Residues count along the entry.
UniProt P16422, 24-265: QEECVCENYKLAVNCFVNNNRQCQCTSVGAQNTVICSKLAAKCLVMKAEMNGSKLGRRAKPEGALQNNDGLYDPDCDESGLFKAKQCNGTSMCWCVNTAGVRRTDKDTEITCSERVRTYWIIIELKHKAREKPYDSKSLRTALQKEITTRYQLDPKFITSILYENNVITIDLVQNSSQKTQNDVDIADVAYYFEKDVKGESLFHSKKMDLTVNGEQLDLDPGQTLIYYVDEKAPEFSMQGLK

Assays:
Assay in all cases: binding assay
Conditions in all cases: No purified-protein binding assay in this paper (Kd values cited). TAS on plasma EVs: 0.1 uM Cy5-aptamer, 1x PBS, 2 mM MgCl2, 25 C, 2 h; label: Cy5; single-stranded DNA
[1] = target: EpCAM (UniProt P16422)
[2] = target: HER2 (UniProt P04626)
[3] = target: EGFR (UniProt P00533)
[4] = target: T1, CEA (UniProt P06731)
T1 sequence (looked up, limits assumed): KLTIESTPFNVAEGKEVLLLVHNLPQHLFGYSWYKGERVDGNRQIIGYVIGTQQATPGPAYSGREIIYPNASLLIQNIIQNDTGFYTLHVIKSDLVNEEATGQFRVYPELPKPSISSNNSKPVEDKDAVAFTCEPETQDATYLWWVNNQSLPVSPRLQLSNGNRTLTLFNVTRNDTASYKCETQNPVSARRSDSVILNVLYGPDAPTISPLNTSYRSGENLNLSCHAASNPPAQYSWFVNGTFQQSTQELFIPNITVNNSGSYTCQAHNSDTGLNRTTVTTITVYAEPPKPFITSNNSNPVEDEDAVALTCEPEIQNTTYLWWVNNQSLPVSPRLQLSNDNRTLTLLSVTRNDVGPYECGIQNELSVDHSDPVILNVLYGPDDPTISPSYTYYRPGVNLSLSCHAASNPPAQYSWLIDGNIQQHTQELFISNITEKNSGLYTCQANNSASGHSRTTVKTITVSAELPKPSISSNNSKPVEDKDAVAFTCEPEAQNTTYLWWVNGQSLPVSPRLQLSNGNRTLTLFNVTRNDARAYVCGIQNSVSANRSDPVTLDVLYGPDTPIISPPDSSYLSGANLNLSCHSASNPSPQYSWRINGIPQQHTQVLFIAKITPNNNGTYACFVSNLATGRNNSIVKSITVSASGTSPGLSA

CACTACAGAGGTTGCGTCTGTCCCACGTTGTCATGGGGGGTTGGCCTG [EpCAM aptamer]
Kd [1]: 22.8 nM

GGGCCGTCGAACACGAGCATGGTGCGTGGACCTAGGATGACCTGAGTACTGTCC [HER2 aptamer]
Kd [2]: 270 nM

TACCAGTGCGATGCTCAGTGCCGTTTCTTCTCTTTCGCTTTTTTTGCTTTTGAGCATGCTGACGCATTCGGTTGAC [EGFR aptamer]
Kd [3]: 56 nM

TTAACTTATTCGACCATA [CEA aptamer]
Kd [4]: 5 nM
